Source: the supplement of paper PMC11006884
Only a part is listed here, and it is no random draw.

By UniProt entry, the sequences of proteins in these tests, tags left out. Where a name states a change or a piece, a line headed by the entry shows the natural chain unless it says otherwise.
UniProt Q15126: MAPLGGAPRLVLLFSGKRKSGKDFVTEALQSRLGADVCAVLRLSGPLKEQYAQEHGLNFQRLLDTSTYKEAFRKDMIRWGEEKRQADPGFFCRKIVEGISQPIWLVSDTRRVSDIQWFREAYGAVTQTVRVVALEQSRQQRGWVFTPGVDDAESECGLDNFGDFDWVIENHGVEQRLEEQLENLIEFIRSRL
UniProt Q2TAA2: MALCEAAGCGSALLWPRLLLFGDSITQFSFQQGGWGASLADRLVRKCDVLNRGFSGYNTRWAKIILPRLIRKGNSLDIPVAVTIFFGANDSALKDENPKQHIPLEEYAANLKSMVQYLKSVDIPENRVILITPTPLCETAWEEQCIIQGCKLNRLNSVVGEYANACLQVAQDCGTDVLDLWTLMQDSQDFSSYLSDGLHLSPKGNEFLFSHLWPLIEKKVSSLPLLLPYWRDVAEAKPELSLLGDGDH
UniProt Q15366, whole entry, looked up: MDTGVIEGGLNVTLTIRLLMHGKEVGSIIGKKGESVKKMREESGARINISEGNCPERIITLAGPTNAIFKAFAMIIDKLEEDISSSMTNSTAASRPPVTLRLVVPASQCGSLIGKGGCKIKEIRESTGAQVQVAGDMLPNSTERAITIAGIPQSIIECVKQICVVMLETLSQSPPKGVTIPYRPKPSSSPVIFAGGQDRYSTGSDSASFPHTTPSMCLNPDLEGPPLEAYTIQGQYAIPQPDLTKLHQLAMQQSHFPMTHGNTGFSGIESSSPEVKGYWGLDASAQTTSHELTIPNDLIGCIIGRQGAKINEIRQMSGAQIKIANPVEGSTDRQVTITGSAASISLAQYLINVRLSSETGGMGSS
UniProt Q15181: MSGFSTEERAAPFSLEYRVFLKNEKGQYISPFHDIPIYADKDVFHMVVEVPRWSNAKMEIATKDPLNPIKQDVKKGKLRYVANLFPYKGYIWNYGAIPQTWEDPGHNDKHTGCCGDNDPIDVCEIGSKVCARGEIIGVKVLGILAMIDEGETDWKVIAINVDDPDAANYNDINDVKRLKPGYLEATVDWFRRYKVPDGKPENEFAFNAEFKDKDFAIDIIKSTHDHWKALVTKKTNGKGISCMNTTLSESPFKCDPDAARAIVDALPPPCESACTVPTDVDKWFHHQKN
UniProt Q15637: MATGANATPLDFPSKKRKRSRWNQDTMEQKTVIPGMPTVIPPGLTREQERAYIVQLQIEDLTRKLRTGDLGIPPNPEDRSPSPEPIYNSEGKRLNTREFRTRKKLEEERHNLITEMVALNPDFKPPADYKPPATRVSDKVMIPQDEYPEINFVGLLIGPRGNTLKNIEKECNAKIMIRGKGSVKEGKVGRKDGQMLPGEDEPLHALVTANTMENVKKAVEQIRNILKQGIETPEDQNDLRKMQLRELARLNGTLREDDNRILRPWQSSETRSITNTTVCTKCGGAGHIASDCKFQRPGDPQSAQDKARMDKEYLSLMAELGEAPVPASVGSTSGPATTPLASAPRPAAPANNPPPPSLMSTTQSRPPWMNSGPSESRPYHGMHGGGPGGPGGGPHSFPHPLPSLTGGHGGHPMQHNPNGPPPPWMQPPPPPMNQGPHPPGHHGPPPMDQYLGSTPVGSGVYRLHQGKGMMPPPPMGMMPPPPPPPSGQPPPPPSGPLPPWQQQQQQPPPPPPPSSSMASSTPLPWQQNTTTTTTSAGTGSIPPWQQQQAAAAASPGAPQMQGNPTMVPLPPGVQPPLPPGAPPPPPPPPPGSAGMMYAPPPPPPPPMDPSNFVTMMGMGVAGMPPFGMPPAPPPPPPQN
UniProt Q15910, whole entry, looked up: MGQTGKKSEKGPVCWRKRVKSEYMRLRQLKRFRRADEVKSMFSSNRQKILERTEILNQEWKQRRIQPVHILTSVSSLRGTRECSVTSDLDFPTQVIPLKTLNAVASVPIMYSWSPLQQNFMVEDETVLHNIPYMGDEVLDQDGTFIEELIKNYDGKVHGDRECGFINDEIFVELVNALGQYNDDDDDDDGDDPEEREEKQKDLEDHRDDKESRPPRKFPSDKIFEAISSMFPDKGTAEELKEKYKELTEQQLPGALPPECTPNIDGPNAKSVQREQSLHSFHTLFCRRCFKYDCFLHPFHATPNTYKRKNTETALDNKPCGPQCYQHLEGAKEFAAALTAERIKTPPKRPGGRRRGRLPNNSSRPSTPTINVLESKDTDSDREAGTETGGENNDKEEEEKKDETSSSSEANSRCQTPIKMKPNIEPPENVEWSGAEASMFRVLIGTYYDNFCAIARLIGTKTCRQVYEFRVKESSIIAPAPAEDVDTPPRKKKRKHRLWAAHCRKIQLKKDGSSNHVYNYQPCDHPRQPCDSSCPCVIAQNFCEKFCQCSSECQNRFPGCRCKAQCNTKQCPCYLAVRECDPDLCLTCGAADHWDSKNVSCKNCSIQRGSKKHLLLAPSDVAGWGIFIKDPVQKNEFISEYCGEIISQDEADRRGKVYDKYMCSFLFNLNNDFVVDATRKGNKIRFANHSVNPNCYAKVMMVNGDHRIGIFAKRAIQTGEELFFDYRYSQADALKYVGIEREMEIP
UniProt Q15813: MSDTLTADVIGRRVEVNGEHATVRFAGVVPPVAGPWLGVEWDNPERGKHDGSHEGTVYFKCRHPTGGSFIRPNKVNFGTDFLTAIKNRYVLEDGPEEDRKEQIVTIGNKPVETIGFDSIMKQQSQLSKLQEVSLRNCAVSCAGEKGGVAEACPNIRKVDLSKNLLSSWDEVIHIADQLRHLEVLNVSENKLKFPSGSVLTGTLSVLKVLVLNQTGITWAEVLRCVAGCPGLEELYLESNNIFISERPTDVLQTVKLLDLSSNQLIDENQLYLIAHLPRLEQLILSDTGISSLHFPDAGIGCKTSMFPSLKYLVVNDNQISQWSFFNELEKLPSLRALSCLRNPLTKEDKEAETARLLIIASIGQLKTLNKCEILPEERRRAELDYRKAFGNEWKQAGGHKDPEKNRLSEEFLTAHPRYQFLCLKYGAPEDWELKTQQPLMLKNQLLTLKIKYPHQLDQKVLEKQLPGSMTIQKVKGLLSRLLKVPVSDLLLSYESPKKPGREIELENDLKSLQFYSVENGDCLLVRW
UniProt Q15067: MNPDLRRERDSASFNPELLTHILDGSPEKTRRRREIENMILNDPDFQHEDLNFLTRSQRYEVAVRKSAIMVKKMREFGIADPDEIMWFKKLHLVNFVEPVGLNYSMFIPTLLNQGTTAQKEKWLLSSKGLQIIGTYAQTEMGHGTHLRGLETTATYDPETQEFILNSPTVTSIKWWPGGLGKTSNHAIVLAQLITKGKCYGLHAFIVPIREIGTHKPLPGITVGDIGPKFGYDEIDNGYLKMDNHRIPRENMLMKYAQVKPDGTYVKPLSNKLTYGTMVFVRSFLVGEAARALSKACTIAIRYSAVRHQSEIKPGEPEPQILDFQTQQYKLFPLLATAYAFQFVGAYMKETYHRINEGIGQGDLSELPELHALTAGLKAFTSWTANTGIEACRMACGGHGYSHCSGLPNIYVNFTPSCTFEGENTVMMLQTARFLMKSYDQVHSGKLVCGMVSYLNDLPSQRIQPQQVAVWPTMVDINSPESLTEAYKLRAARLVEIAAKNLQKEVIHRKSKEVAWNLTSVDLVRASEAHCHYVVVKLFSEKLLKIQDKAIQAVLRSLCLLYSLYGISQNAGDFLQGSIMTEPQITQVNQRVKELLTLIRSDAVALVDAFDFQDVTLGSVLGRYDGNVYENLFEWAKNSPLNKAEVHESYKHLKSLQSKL
UniProt Q15723: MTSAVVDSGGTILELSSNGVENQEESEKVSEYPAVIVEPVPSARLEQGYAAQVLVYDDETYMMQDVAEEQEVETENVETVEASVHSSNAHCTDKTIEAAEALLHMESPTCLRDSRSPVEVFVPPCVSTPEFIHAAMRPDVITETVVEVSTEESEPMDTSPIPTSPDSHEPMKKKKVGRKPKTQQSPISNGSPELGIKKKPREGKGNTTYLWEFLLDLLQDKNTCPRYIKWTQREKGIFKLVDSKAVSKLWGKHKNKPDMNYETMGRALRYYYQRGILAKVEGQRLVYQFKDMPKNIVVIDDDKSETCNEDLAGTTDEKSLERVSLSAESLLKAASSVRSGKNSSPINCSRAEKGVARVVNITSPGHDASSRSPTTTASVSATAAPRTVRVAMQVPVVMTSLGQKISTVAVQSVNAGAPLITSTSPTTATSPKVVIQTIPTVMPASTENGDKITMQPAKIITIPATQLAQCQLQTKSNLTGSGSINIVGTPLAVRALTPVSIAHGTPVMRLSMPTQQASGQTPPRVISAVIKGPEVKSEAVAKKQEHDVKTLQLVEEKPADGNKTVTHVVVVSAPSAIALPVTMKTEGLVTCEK
UniProt Q15276: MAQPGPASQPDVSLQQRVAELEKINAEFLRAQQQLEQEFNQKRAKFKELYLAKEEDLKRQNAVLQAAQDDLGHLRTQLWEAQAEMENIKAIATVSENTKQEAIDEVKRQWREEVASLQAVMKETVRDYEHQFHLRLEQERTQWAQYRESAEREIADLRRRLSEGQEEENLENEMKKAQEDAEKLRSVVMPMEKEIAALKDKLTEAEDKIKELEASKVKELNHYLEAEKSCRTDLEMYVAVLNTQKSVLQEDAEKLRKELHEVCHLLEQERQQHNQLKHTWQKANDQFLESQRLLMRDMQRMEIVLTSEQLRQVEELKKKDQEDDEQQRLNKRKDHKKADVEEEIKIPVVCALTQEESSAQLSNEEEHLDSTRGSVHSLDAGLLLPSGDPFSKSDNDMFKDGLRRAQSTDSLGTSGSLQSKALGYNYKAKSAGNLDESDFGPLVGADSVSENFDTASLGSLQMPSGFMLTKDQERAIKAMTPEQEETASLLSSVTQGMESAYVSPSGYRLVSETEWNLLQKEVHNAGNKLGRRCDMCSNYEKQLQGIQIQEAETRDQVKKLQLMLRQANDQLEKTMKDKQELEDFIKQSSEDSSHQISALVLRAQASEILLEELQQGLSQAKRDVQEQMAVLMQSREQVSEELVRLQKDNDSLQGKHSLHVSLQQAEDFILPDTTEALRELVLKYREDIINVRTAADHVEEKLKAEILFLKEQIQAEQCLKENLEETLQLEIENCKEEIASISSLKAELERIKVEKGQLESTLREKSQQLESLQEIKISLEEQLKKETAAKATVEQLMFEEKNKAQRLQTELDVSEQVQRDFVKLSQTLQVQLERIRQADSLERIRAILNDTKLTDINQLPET
UniProt Q15427: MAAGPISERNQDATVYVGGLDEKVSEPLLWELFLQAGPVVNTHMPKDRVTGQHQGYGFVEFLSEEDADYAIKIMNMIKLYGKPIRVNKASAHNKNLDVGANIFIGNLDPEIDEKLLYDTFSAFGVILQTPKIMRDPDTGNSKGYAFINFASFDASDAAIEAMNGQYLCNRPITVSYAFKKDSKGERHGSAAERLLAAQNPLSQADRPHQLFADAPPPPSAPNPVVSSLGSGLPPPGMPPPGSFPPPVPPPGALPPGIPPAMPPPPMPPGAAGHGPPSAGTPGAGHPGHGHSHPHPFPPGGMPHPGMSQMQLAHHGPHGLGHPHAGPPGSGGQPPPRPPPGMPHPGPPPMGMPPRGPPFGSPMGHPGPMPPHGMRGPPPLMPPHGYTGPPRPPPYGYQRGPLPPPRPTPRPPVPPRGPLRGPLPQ
UniProt Q15796, whole entry, looked up: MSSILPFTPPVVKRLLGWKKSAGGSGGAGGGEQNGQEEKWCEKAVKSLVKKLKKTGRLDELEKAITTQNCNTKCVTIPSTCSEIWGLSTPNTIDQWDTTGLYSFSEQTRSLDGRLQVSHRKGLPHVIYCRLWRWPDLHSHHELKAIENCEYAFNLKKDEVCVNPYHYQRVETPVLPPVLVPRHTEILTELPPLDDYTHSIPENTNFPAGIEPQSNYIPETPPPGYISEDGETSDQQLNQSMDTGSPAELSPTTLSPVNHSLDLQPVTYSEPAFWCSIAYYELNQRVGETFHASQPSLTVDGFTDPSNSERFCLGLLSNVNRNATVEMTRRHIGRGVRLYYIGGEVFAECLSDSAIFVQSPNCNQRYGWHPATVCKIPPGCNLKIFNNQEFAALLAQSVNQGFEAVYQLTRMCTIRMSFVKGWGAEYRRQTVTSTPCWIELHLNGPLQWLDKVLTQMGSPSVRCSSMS
UniProt Q53EZ4: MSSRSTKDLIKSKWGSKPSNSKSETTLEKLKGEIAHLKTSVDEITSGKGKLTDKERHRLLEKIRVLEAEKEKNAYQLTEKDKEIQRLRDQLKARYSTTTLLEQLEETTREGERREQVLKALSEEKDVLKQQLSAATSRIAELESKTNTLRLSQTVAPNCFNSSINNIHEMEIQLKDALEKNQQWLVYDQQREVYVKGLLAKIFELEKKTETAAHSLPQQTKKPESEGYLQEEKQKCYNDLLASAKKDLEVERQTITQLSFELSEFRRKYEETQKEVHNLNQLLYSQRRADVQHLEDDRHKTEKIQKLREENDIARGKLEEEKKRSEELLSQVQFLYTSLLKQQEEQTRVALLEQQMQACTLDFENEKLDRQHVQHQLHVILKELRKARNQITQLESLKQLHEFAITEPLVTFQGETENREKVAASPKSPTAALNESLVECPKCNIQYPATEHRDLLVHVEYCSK

Compound: COC(=O)C#Cc1ccccc1 [methyl 3-phenylpropiolate]
Assay: log2 ratio of iodoacetamide-alkyne labeling of the cysteine site, DMSO over compound (competition); higher = stronger covalent engagement of the cysteine by the compound, active = 1 or more
Details: 500 µM; treatment time 1 h; system: HEK293T cell lysate
Outline: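 After 1 h at ambient temperature with vehicle or electrophile (500 µM), HEK293T lysate (2 mg/mL) was labelled for 1 h with iodoacetamide alkyne and clicked to sCIP-TMT reagents. Pooled samples were trypsin-digested overnight at 37 °C, streptavidin-enriched, acid-eluted and analysed by Orbitrap Eclipse LC-MS/MS with FAIMS, then quantified in FragPipe over three replicates with duplicate channels. A cysteine's log2 competition ratio is its mean control-channel over mean compound-channel reporter intensity. Cysteines quantified in only one replicate were not included.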

Target	log2 ratio of iodoacetamide-alkyne labeling
UAP1L1 C332 (UniProt Q3KQV9)	inactive: 0.468
TBC1D10B C590 (UniProt Q4KMP7)	inactive: 0.304
CPSF6 C159 (UniProt Q16630)	inactive: 0.396
PMVK C38 (UniProt Q15126)	inactive: 0.115
PTGES3 C75 (UniProt Q15185)	inactive: -0.0232
IAH1 C4 (UniProt Q2TAA2)	active: 2.43
RBBP7 C202 (UniProt Q16576)	inactive: 0.321
HSD17B12 C215 (UniProt Q53GQ0)	inactive: 0.0895
PCM1 C876 (UniProt Q15154)	inactive: 0.408
PCBP2 C158 (UniProt Q15366)	inactive: 0.436
PPA1 C254 (UniProt Q15181)	inactive: 0.16
EFTUD2 C144 (UniProt Q15029)	inactive: 0.297
SF1 C279 (UniProt Q15637)	inactive: -0.0573
TCEAL1 C88 (UniProt Q15170)	inactive: 0.735
SETDB1 C92 (UniProt Q15047)	inactive: 0.252
EZH2 C83 (UniProt Q15910)	inactive: 0.434
TAF12 C143 (UniProt Q16514)	inactive: 0.37
PCBP2 C217 (UniProt Q15366)	inactive: 0.323
TBCE C141 (UniProt Q15813)	inactive: 0.344

Target	log2 ratio of iodoacetamide-alkyne labeling
UGP2 C123 (UniProt Q16851)	inactive: 0.0184
TARBP2 C282 (UniProt Q15633)	inactive: 0.513
CCDC85B C173 (UniProt Q15834)	inactive: 0.334
PPA1 C113 (UniProt Q15181)	inactive: 0.0789
ACOX1 C449 (UniProt Q15067)	inactive: 0.174
ELF2 C307 (UniProt Q15723)	inactive: 0.387
SF1 C292 (UniProt Q15637)	inactive: 0.123
UniProt Q16352_C54	inactive: 0.431
UniProt Q4ADV7_C182	inactive: -0.105
KIF14 C471 (UniProt Q15058)	inactive: 0.309
EFTUD2 C148 (UniProt Q15029)	inactive: 0.297
UniProt Q15149_C3336	inactive: 0.485
RABEP1 C350 (UniProt Q15276)	inactive: 0.66
SF3B4 C168 (UniProt Q15427)	inactive: -0.0894
SMAD2 C41 (UniProt Q15796)	inactive: 0.994
LRRFIP1 C644 (UniProt Q32MZ4)	inactive: 0.348
CEP55 C359 (UniProt Q53EZ4)	inactive: 0.569
IAH1 C137 (UniProt Q2TAA2)	inactive: 0.339

Quoted from the listing:
log2 ratio of iodoacetamide-alkyne labeling with SF1 C292 (UniProt Q15637) is entered as inactive: 0.123
log2 ratio of iodoacetamide-alkyne labeling with UniProt Q16352_C54 is entered as inactive: 0.431
